The record followed here is article PMC12145424, “Structural insights into tRNA recognition of the human FTSJ1-THADA complex” (Communications Biology, 2025).

By UniProt entry, the sequences of proteins in these tests, tags left out. Where a name states a change or a piece, a line headed by the entry shows the natural chain unless it says otherwise. Chains listed by the source or under a name are the forms on record and can include a tag or linker.
UniProt Q6YHU6: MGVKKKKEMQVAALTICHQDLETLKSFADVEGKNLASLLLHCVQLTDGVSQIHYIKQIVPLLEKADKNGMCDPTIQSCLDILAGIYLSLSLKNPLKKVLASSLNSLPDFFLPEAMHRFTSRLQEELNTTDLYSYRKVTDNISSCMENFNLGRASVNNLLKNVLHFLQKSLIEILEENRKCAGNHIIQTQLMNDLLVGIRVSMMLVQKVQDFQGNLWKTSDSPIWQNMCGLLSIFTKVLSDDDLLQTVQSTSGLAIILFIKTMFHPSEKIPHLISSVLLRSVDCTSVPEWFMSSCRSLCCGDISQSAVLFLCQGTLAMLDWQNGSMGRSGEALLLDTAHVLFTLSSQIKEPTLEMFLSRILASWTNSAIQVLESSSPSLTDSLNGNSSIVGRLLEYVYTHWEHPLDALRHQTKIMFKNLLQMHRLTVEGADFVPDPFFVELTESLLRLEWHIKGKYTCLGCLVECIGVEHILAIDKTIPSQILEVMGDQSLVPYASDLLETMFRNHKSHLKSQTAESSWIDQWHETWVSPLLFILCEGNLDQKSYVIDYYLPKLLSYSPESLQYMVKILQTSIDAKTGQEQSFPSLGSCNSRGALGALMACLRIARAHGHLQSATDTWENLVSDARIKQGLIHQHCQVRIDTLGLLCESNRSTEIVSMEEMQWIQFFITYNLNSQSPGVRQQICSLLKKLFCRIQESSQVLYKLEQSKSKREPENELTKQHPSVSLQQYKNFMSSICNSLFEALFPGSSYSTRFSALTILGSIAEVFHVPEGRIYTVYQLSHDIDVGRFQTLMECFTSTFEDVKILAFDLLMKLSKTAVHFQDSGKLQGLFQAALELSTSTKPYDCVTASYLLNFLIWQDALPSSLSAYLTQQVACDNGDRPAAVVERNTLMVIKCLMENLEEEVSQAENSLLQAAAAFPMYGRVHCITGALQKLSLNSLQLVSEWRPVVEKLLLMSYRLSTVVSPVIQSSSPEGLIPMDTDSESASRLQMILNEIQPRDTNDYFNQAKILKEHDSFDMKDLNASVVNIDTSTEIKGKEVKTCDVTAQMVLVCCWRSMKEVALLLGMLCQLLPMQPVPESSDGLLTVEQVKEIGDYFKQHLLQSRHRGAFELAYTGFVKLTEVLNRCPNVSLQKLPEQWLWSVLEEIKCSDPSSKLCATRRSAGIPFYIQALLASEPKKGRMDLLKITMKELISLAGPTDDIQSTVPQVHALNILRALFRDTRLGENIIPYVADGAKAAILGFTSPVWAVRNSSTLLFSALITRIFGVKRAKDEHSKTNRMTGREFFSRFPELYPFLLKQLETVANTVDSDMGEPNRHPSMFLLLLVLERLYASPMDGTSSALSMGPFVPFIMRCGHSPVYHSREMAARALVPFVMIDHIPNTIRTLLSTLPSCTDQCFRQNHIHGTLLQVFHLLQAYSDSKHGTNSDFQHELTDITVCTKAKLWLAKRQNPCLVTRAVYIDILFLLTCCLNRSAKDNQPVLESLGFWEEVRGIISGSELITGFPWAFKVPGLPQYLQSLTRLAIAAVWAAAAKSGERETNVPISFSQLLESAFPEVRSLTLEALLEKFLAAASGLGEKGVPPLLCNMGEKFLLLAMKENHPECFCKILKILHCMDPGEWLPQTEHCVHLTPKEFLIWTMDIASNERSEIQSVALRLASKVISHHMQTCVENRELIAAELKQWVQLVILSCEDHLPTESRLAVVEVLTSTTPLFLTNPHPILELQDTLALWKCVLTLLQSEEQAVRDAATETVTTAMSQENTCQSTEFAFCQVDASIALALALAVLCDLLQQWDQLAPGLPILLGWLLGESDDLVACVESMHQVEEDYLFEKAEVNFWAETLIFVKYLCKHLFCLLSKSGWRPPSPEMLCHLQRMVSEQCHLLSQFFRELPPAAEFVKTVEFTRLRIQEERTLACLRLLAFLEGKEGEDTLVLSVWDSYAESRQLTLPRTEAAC
FLAG-tagged THADA Glu1225Ala mutant (Q6YHU6, form named): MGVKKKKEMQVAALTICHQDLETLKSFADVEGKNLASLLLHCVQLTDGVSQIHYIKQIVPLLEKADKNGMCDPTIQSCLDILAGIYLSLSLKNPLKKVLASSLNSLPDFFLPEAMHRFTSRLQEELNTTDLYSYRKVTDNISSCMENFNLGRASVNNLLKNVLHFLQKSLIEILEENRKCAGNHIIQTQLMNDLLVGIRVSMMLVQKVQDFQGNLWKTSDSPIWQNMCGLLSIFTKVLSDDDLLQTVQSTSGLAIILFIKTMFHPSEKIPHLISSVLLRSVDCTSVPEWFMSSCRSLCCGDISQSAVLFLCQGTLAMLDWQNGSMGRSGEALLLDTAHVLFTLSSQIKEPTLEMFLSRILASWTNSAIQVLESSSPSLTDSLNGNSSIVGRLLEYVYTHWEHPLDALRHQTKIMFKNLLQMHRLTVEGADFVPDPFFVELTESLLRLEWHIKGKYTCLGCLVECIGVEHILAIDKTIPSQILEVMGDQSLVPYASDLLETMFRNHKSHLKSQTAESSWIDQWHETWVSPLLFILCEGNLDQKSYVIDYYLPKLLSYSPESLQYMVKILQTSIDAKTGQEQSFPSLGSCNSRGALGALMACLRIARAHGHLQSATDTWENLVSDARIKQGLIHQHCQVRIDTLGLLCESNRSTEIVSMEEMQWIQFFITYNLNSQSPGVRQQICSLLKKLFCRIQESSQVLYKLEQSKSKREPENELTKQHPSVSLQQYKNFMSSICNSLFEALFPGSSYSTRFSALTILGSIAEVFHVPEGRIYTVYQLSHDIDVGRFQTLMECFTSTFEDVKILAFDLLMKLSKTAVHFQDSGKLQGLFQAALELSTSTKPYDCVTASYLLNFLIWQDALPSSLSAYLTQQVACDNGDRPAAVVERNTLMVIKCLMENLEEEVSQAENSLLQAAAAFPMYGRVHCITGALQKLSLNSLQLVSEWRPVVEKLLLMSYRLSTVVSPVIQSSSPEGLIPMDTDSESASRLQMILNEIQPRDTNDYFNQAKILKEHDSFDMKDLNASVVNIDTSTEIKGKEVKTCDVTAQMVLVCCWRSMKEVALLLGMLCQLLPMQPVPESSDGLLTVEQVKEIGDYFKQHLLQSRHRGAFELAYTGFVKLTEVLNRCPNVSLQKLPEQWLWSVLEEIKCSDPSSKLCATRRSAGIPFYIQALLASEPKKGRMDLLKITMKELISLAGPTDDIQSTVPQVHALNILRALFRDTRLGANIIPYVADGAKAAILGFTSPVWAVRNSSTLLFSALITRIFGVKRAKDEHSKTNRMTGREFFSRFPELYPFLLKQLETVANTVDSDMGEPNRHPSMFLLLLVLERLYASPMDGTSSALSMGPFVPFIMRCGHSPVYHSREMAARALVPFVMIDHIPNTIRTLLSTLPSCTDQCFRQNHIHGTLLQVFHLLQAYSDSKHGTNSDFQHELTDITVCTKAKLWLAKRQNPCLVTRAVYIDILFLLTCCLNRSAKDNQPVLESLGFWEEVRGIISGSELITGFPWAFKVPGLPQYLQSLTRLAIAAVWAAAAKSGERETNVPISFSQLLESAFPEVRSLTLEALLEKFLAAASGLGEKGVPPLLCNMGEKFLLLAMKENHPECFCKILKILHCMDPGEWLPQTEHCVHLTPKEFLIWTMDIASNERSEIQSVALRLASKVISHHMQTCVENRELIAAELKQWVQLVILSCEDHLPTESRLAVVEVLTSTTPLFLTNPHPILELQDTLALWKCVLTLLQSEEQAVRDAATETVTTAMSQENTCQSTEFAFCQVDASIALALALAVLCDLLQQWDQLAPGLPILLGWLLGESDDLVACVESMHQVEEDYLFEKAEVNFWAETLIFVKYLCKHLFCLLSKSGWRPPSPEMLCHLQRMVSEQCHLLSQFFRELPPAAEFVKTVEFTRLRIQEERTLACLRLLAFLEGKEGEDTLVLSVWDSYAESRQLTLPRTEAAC

Assay [1] addresses FLAG-tagged THADA Glu1225Ala mutant (human) (UniProt Q6YHU6). Kind of assay: co-IP; 293FT cells transfected with FLAG-tagged THADA; lysate in 20 mM Tris-HCl pH 7.4, 150 mM NaCl, 1 mM EDTA, 1 mM EGTA, 0.01% Triton X-100; anti-FLAG M2 affinity gel; blot with anti-FLAG and anti-FTSJ1.
In assay [2] the target is FLAG-tagged THADA, wild type (293FT, immunoprecipitation) (human) (UniProt Q6YHU6). The assay is described as above.

These are yes or no findings as the source states them, for the method shown. Binding seen in cells or lysates may run through a third protein. Some binding calls cover weakened binding; strength is not graded here.

B1: Human FTSJ1 (FLAG-tagged, co-expressed with THADA) (enzyme)
chain: MGRTSKDKRDVYYRLAKENGWRARSAFKLLQLDKEFQLFQGVTRAVDLCAAPGSWSQVLSQKIGGQGSGHVVAVDLQAMAPLPGVVQIQGDITQLSTAKEIIQHFKGCPADLVVCDGAPDVTGLHDVDEYMQAQLLLAALNIATHVLKPGGCFVAKIFRGRDVTLLYSQLQVFFSSVLCAKPRSSRNSSIEAFAVCQGYDPPEGFIPDLSKPLLDHSYDPDFNQLDGPTRIIVPFVTCGDLSSYDSDRSYPLDLEGGSEYKYTPPTQPPISPPYQEACTLKRKGQLAKEIRPQDCPISRVDTFPQPLAAPQCHTLLAPEMEDNEMSCSP
notes: FTSJ1, human; gene PCR-amplified and cloned into a modified pcDNA3.4 vector; no TEV cleavage step is described in the purification; also called Trm7 (yeast name); not shown: FLAG, N-terminal, kept
For B1, the binding result in assay [1] and in assay [2] was “binds” throughout.
